Assay [1] concerns the target T1, human NOV protein (human) (UniProt P48745).
T1 sequence: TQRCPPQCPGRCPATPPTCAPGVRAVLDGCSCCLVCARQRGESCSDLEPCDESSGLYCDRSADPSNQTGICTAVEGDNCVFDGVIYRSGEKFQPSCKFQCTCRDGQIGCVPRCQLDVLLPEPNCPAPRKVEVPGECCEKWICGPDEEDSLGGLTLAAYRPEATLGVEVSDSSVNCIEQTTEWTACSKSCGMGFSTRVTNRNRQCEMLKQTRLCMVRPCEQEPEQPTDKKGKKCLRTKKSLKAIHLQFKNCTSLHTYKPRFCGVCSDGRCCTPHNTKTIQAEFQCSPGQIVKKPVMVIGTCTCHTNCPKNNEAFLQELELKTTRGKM
Nature of the assay: Solid-phase radioligand binding: NOV on plastic, iodized VEGF189 in solution, cpm per well.

Protein sequences, listed by entry. Tags and fused reporters are not part of them. Lines headed by an entry give the natural chain unless they say otherwise; changes in a name come on top. Chains listed by the source or under a name are the forms on record and can include a tag or linker.
VEGF165 (P15692, form named): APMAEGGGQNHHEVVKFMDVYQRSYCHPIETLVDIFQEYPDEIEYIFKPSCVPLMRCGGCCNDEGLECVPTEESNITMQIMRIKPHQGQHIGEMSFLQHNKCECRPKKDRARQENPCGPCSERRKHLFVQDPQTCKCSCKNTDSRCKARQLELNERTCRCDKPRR

Assay [2] has as its target T1, human NOV protein (human). Nature of the assay: Solid-phase radioligand binding: NOV on plastic, iodized VEGF165 in solution, cpm per well.
Assay [3] deals with T1, human NOV protein (human). Nature of the assay: Solid-phase radioligand binding: NOV (4 µg/ml) on a 96-well plate, 1 ng/well iodized VEGF165, with or without 2 µg/ml unlabelled VEGF165 or NOV.

These are yes or no findings as the source states them, for the method shown. Some binding calls cover weakened binding; strength is not graded here.

For “VEGF189 (from UniProt P15692 27-215) (ligand)”, the binding entry in assay [1] is given as “binds”.

Consider “VEGF165 (from UniProt P15692 27-191) (ligand)”, for which the binding entry in assay [2] and in assay [3] was “binds” throughout.

The record behind these values is patent US20070059314A1.
